The list shows a part of the results. The data scatter; read single values as rough.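 Many melting curves are irregular; where none melted, Tm was taken as 64 °C.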
Compound: CCc1cnccc1C(=O)Nc1cc2c(cc1F)NC(=O)CC2
Experiment: melting temperature shift (DMSO Tm minus MBE1-treated Tm) in cellular thermal proteome profiling; higher = less thermal stabilization by MBE1 (negative = stabilized by MBE1)
Details: A375

By UniProt entry, the sequences of proteins in these tests, tags left out. Where a name states a change or a piece, a line headed by the entry shows the natural chain unless it says otherwise.
UniProt Q9BRV8: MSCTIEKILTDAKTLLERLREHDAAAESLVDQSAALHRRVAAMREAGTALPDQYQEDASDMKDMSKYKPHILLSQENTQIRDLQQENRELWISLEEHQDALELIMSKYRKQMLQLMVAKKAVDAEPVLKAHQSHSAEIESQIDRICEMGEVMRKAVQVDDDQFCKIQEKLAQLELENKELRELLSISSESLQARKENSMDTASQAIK
UniProt Q99653: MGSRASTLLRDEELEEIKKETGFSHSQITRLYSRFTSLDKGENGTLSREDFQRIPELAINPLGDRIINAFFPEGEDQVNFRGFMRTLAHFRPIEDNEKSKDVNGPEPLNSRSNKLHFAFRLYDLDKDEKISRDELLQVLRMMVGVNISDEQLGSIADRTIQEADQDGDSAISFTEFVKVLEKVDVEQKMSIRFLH
UniProt Q9BPY3: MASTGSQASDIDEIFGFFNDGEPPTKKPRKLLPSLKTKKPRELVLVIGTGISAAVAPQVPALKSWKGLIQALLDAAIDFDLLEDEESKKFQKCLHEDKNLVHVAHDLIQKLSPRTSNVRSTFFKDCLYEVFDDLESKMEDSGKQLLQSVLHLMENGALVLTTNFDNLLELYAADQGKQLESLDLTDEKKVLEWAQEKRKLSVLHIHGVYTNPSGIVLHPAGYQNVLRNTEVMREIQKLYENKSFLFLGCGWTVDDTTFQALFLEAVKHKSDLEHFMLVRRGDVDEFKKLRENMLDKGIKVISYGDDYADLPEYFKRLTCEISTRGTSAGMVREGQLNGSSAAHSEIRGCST
UniProt Q9BXV9: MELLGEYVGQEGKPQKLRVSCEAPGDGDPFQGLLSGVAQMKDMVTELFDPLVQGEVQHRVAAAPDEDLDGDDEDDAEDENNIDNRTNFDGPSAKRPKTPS
UniProt Q9BXB4: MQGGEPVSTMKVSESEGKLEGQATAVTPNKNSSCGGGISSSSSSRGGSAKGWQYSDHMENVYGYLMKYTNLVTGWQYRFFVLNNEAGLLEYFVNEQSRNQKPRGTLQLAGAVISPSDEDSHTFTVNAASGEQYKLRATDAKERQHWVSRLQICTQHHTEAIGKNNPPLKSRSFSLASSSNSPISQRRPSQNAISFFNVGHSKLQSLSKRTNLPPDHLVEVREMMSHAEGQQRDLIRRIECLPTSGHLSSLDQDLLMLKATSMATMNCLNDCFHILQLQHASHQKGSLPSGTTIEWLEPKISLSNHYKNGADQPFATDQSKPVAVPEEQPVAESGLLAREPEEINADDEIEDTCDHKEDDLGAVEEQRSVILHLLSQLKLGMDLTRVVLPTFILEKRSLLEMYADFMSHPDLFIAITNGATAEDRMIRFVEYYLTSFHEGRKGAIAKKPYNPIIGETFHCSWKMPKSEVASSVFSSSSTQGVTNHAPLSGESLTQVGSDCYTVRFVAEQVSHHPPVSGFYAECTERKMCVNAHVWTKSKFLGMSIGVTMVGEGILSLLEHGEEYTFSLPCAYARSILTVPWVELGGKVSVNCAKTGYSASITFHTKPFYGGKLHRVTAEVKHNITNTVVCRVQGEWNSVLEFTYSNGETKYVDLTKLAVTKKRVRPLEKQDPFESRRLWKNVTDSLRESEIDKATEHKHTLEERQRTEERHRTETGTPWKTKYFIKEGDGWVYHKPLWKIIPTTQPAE
UniProt Q9BTT6: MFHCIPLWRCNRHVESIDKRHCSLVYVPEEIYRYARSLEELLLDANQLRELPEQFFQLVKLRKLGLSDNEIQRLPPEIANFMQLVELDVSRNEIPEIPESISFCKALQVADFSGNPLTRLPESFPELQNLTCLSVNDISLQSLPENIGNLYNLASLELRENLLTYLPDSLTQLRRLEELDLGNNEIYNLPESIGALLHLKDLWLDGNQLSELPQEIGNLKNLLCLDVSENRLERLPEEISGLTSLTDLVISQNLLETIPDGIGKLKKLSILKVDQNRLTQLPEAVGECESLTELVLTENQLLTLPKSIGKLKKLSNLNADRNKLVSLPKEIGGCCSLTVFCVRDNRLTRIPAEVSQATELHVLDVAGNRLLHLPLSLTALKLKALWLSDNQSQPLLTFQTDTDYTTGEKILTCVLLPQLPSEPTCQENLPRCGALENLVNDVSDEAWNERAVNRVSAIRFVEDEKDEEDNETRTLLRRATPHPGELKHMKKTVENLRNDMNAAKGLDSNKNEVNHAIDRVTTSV
UniProt Q9BRD0: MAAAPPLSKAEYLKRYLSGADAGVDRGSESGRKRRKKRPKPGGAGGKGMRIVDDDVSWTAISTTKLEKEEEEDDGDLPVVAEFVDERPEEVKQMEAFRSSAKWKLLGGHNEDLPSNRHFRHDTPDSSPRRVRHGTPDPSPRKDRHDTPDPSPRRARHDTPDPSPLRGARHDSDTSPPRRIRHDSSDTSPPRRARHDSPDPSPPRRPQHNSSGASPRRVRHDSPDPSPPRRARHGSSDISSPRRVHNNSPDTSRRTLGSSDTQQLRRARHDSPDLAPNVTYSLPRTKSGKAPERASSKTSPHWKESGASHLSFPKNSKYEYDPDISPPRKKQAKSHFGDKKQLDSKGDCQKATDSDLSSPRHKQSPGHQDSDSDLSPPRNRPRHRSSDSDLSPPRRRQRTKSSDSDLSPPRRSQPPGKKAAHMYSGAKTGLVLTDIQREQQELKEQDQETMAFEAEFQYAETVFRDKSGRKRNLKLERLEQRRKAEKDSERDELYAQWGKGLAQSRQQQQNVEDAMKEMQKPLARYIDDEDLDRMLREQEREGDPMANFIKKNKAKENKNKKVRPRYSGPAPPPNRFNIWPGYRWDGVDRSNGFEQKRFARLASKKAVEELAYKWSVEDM
UniProt Q9BUA3: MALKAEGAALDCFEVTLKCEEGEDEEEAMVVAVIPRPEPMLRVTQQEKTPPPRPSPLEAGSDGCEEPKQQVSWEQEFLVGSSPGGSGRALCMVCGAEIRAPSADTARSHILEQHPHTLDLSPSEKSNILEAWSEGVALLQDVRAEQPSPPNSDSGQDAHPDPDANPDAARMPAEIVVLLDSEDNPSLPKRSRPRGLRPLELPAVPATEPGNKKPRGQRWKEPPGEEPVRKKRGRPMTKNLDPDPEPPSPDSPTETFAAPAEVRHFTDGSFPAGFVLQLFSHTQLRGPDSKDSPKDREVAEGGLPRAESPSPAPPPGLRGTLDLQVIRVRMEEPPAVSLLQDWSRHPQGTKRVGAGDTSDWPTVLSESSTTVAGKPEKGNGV
UniProt Q9BUK6: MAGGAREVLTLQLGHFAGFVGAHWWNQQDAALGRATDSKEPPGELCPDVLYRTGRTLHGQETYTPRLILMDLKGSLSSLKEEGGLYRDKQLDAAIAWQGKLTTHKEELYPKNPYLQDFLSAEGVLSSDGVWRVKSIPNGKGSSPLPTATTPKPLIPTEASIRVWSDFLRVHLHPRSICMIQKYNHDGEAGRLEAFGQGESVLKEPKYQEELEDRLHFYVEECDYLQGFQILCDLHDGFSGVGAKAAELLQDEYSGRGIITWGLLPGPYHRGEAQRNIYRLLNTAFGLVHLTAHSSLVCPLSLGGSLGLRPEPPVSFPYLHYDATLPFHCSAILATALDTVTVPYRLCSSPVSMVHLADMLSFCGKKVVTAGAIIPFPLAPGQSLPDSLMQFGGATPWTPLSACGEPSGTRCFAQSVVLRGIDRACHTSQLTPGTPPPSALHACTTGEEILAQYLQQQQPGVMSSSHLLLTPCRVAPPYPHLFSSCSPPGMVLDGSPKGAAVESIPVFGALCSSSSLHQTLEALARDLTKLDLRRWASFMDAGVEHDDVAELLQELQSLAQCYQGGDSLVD
UniProt Q99848: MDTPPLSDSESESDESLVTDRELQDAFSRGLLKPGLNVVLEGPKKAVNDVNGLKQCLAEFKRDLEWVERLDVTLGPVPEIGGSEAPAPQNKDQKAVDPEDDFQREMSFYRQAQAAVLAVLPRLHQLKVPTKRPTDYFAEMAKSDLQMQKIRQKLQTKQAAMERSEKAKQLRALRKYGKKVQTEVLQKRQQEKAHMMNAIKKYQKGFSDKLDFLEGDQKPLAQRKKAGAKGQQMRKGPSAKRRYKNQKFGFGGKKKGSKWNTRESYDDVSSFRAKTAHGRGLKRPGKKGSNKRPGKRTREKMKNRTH
UniProt Q99798: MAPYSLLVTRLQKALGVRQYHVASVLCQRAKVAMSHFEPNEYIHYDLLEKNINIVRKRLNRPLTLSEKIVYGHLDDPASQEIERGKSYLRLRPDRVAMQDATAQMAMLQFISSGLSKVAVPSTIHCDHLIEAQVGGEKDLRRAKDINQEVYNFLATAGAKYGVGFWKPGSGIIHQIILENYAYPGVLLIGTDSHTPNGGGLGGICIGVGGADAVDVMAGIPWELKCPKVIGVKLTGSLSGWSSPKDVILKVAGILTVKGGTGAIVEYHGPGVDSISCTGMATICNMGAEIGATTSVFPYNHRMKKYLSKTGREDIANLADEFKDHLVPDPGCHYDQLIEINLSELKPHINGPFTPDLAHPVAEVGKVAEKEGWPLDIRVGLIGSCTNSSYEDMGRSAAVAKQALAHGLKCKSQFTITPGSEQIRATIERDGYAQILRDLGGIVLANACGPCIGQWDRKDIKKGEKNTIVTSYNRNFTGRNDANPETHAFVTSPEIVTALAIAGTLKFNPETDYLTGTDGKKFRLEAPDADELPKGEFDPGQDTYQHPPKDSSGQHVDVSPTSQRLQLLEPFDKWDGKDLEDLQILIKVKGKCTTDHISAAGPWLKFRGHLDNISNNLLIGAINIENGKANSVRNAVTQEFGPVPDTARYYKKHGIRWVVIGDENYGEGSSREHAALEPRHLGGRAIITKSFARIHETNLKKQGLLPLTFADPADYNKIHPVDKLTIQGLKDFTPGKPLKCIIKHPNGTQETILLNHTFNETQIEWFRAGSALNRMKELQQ
UniProt Q9BV20: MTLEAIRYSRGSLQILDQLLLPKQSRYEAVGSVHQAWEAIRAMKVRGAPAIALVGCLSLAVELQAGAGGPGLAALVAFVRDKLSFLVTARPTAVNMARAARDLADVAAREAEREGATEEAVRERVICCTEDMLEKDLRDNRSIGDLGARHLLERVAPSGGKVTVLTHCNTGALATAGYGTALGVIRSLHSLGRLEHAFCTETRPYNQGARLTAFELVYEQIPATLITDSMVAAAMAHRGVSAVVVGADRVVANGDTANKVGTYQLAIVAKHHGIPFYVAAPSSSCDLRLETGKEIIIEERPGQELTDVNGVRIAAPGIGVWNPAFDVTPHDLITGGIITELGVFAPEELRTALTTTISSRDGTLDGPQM
UniProt Q9BVV7: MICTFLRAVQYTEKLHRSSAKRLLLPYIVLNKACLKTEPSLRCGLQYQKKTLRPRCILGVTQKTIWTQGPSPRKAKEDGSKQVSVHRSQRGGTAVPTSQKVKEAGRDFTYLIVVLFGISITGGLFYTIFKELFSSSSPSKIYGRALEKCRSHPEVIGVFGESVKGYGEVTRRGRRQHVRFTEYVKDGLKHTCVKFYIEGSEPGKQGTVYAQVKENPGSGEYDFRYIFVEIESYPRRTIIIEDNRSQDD
UniProt Q9BV57: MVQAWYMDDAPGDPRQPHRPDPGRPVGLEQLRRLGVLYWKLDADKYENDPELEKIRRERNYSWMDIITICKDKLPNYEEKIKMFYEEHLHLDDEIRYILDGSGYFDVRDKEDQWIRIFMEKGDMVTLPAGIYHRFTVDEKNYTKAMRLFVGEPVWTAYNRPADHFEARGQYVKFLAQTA
UniProt Q9BTE3: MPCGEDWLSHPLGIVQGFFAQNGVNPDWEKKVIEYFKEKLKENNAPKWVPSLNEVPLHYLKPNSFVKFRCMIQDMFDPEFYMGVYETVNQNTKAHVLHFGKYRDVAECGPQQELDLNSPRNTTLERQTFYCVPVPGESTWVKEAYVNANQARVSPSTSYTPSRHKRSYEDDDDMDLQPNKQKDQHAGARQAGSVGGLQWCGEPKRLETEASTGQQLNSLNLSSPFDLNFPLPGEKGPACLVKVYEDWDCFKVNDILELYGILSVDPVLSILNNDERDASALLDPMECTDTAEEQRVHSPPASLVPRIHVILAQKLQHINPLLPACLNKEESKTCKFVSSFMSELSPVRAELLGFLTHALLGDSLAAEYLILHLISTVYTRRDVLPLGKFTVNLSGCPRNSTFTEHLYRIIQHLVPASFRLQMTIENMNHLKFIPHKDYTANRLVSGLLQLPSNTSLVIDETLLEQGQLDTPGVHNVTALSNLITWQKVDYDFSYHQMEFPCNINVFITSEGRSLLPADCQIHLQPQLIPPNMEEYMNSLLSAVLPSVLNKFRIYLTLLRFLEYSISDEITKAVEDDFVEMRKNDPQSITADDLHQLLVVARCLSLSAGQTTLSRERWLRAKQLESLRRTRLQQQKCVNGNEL
UniProt Q9BTL3: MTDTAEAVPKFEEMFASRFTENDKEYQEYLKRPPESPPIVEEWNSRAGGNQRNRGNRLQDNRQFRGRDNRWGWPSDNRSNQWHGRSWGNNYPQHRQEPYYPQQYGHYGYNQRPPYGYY
UniProt Q99807: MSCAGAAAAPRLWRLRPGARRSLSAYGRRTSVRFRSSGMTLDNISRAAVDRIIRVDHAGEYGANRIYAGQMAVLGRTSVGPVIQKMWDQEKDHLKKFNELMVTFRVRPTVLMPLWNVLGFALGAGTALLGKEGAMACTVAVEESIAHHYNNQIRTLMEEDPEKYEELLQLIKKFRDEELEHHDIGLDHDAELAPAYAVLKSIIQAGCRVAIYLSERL

Target | melting temperature shift (MBE1 concentration: 100 nM) | melting temperature shift (MBE1 concentration: 1 uM)
LSM14B (UniProt Q9BX40) | 0.325 °C | -0.333 °C
UniProt Q9BRV8 | 0.397 °C | -2.08 °C
CHP1 (UniProt Q99653) | -0.403 °C | 0.238 °C
UniProt Q9BWJ5 | -0.183 °C | 0.892 °C
UQCC2 (UniProt Q9BRT2) | -0.22 °C | -0.575 °C
SCNM1 (UniProt Q9BWG6) | -0.107 °C | 0.399 °C
UniProt Q9BQT8 | -3.98 °C | -4.16 °C
FAM118B (UniProt Q9BPY3) | -0.32 °C | 0.235 °C
LGMN (UniProt Q99538) | -0.932 °C | 0.771 °C
SLC4A1AP (UniProt Q9BWU0) | 0.0794 °C | 0.372 °C
PRPF18 (UniProt Q99633) | -1.14 °C | -0.146 °C
MLST8 (UniProt Q9BVC4) | 0.0805 °C | 0.539 °C
PTDSS2 (UniProt Q9BVG9) | -0.731 °C | 1.37 °C
NIPSNAP1 (UniProt Q9BPW8) | -0.449 °C | 0.114 °C
UniProt Q9BXV9 | -3.7 °C | 0.421 °C
OSBPL11 (UniProt Q9BXB4) | -0.287 °C | -0.311 °C
NAA15 (UniProt Q9BXJ9) | -0.154 °C | 0.101 °C
UniProt Q9BTT6 | 1.74 °C | 1.08 °C
GINS3 (UniProt Q9BRX5) | -0.147 °C | 0.00611 °C
COPS4 (UniProt Q9BT78) | -0.349 °C | 0.0134 °C

Target | melting temperature shift (MBE1 concentration: 100 nM) | melting temperature shift (MBE1 concentration: 1 uM)
UniProt Q9BRD0 | -2.09 °C | 0.0855 °C
C7ORF50 (UniProt Q9BRJ6) | -1.04 °C | -1.96 °C
UniProt Q9BUA3 | -2.69 °C | 0.44 °C
KATNAL1 (UniProt Q9BW62) | -0.342 °C | 0.58 °C
IFT27 (UniProt Q9BW83) | -0.845 °C | -0.986 °C
VRK1 (UniProt Q99986) | -0.754 °C | 0.00641 °C
MSTO1 (UniProt Q9BUK6) | 0.482 °C | 0.586 °C
TMEM70 (UniProt Q9BUB7) | -1.23 °C | 0.00671 °C
HAUS8 (UniProt Q9BT25) | -1.44 °C | -0.339 °C
TTC1 (UniProt Q99614) | -3.65 °C | -3.35 °C
EBNA1BP2 (UniProt Q99848) | -2.3 °C | -1.53 °C
UniProt Q9BV29 | 1.87 °C | -1.25 °C
DNAJC2 (UniProt Q99543) | -0.677 °C | -0.898 °C
TM9SF2 (UniProt Q99805) | -0.577 °C | 0.711 °C
HDHD3 (UniProt Q9BSH5) | -1.34 °C | -1.19 °C
ACO2 (UniProt Q99798) | 1.06 °C | 0.891 °C
MRI1 (UniProt Q9BV20) | -0.61 °C | -0.275 °C
TIMM21 (UniProt Q9BVV7) | -0.107 °C | 9.79 °C
RPP25 (UniProt Q9BUL9) | -1.95 °C | 0.189 °C
PDCD2L (UniProt Q9BRP1) | 0.476 °C | 0.0427 °C

Single records, from the list above.
RPP25 (UniProt Q9BUL9) as listed: melting temperature shift (MBE1 concentration: 100 nM): -1.95 °C; melting temperature shift (MBE1 concentration: 1 uM): 0.189 °C
MLST8 (UniProt Q9BVC4) as listed: melting temperature shift (MBE1 concentration: 100 nM): 0.0805 °C; melting temperature shift (MBE1 concentration: 1 uM): 0.539 °C
MSTO1 (UniProt Q9BUK6) as listed: melting temperature shift (MBE1 concentration: 100 nM): 0.482 °C; melting temperature shift (MBE1 concentration: 1 uM): 0.586 °C
DNAJC2 (UniProt Q99543) as listed: melting temperature shift (MBE1 concentration: 100 nM): -0.677 °C; melting temperature shift (MBE1 concentration: 1 uM): -0.898 °C

(listing goes on)

Target | melting temperature shift (MBE1 concentration: 100 nM) | melting temperature shift (MBE1 concentration: 1 uM)
KIFC3 (UniProt Q9BVG8) | -1.68 °C | -3.31 °C
TACO1 (UniProt Q9BSH4) | -0.715 °C | 0.194 °C
FANCD2 (UniProt Q9BXW9) | -0.698 °C | -0.173 °C
UniProt Q99698 | -2.8 °C | -0.161 °C
UniProt Q9BQ04 | -0.502 °C | -0.365 °C
ADI1 (UniProt Q9BV57) | 0.916 °C | 1.24 °C
PKMYT1 (UniProt Q99640) | 0.207 °C | 1.89 °C
UniProt Q9BPU6 | 0.235 °C | 0.299 °C
NCAPG (UniProt Q9BPX3) | -0.725 °C | -0.513 °C
RTKN (UniProt Q9BST9) | -0.723 °C | -0.823 °C
SCAF11 (UniProt Q99590) | -7.21 °C | 0.134 °C
NUP85 (UniProt Q9BW27) | 1.28 °C | 0.586 °C
C17ORF62 (UniProt Q9BQA9) | -0.893 °C | -0.727 °C
NAPG (UniProt Q99747) | -0.574 °C | -0.315 °C
MCMBP (UniProt Q9BTE3) | -0.753 °C | -0.382 °C
TMED9 (UniProt Q9BVK6) | -1.66 °C | -1.02 °C
WDR77 (UniProt Q9BQA1) | -0.0134 °C | 0.322 °C
FAM103A1 (UniProt Q9BTL3) | 0.818 °C | -2.47 °C
COQ7 (UniProt Q99807) | -2.58 °C | -0.501 °C
UniProt Q9BRK4 | -0.488 °C | 1.43 °C

— the supplement of paper PMC12595434, “Development of retinoid nuclear receptor pathway antagonists through targeting aldehyde dehydrogenase 1A3” (iScience, 2025)
